This is an account of results in the supplement of paper PMC7024190.

Counter-ions that a name gives are not always drawn. Some of the results follow. Repeats in this data set agree poorly, so a single value says little.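 A first-round screen of about ten thousand compounds sought those raising reporter output, using human embryonic kidney cells briefly transfected with a plasmid carrying a Renilla luciferase gene driven by the HSV-TK promoter.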

In this experiment the test system is HEK 293FT. Put plainly: log relative Renilla luciferase luminescence (reporter expression vs reference, reference not stated) (log (base not stated)); higher = higher recombinant reporter expression. To be noted: 10 µM; time after transfection 48 h.
For `Oc1cc2c(cc1O)C(c1ccccc1)CNCC2` (stereo not given), the log came out at 0.088.

As for `CC(C)NCC(O)c1ccc(NS(C)(=O)=O)cc1` (stereo not given) [Sotalol hydrochloride], the log turned out to be 0.0845.

`O=C(C=Cc1ccccc1)NC(NC(=S)Nc1ccc(Cl)cc1)C(Cl)(Cl)Cl` (stereo not given): the log was -0.0942.

Regarding `CC(C)(Sc1ccc(CCN(CCCCC2CCCCC2)C(=O)NC2CCCCC2)cc1)C(=O)O`, the log was -0.012.

On to `CC(C)[C@H](CO)Nc1nc(Nc2cc(N)cc(Cl)c2)c2ncn(C(C)C)c2n1` [Aminopurvalanol A], for which the log is -0.267.

With `C=CCn1c(=O)n([C@@H]2O[C@H](CO)[C@@H](O)[C@H]2O)c2nc(N)[nH]c(=O)c21`, the log was -0.0637.

For `COc1cc(N)c(Cl)cc1C(=O)OCCCN1CCCCC1`, the log was -0.044.

Consider `COc1cccc2c1C(=O)c1c(O)c3c(c(O)c1C2=O)C[C@@](O)(C(=O)CO)C[C@@H]3O[C@H]1C[C@H](N)[C@H](O)[C@H](C)O1` [Doxorubicin hydrochloride], for which the log is -0.984.

For the molecule `CNC(=O)[C@@H](Cc1ccccc1)N(C)C(=O)[C@@H](Cc1ccc2ccccc2c1)N(C)C(=O)/C=C/CC(C)(C)N` [Tabimorelin], the log was -0.0382.

For `COC(=O)Nc1ccc2[nH]cc(CCNC(C)=O)c2c1`, the log was -0.122.

In the case of `CN1CCN(CCc2ccc(Cl)c(Cl)c2)CC1` [BD 1063 dihydrochloride], the log was -0.0929.

Regarding `N=C(N)NC(=N)Nc1ccccc1` [1-Phenylbiguanide hydrochloride], the log was determined as 0.134.

In the case of `CCc1ccc2c(-c3cccc(Cl)c3)nc(=O)n(CC)c2n1`, the log was 0.148.

With `Nc1ccc(-c2nc3ccc(-c4nc5ccc(N)cc5[nH]4)cc3[nH]2)cc1`, the log was -0.102.

As for `CCOC(=O)C1=C[C@]2(CC)CCCN3CCc4c(n1c1ccccc41)[C@@H]32` [Vinpocetine], the log is -0.00649.

Regarding `CN(C)C(=O)n1nnnc1Cc1ccc(-c2ccccc2)cc1`, the log was -1.1.

Regarding `CC(=O)N(OCc1ccccc1)[C@H]1c2cc(C#N)ccc2OC(C)(C)[C@H]1O`, the log stood at 0.0562.

In the case of `COc1ccc2c(c1OC)C(=O)O[C@@H]2[C@H]1c2c(cc3c(c2OC)OCO3)CCN1C` [Noscapine hydrochloride], the log stood at 0.114.

As for `NC(N)=NC(N)=Nc1cccc(Cl)c1` [m-Chlorophenylbiguanide hydrochloride], the log was found to be 0.103.

Turning to `CCN(CC)CCOC(=O)C1(c2ccc([N+](=O)[O-])cc2)CCCC1` [Nitrocaramiphen hydrochloride], the log turned out to be 0.126.

On to `OC[C@H]1O[C@@H](n2cnc3c(NC4CCCC4)ncnc32)[C@H](O)[C@@H]1O` [N6-Cyclopentyladenosine], for which the log is -0.032.

Consider `COc1nccc(-c2c(-c3ccc(F)cc3)ncn2C2CCC(O)CC2)n1` (stereo not given), for which the log was -0.678.

With `O=C1Nc2ccc(I)cc2/C1=C/c1cc(Br)c(O)c(Br)c1`, the log was 0.0637.

On to `CNS(=O)(=O)Cc1ccc2[nH]cc(CCN(C)C)c2c1` [Sumatriptan succinate], for which the log was -0.056.

In the case of `CC1(CN2CCC(n3c(=O)[nH]c4ccccc43)CC2)OCc2ccccc2-n2cccc21` (stereo not given), the log is -0.241.

Take `COc1ccc2[nH]c(I)c(CCNC(C)=O)c2c1` [2-Iodomelatonin]: the log is 0.00954.

For `CN(C)CCCSC(=N)N` [Dimaprit dihydrochloride], the log was determined as 0.036.

Consider `CCN(CC)CC1CCN(c2ncc3ncnc(Nc4ccc(F)c(Cl)c4)c3n2)CC1` [BIBU 1361 dihydrochloride], for which the log worked out at 0.0159.

Take `CCCOc1ccc(Br)cc1-c1cc(-c2ccc(Cl)cc2)[nH]c1-c1ccncc1`: the log is -0.0778.

On to `O=C(c1ccc(F)cc1)C1CCN(CCn2c(=S)[nH]c3ccccc3c2=O)CC1` [Altanserin hydrochloride], for which the log is 0.0787.

On to `COc1ccc([C@H]2CNC(=O)C2)cc1OC1CCCC1` [(S)-(+)-Rolipram], for which the log is -0.0798.

Regarding `COc1ccccc1N1CCN(CCCNc2cc(=O)n(C)c(=O)n2C)CC1` [Urapidil hydrochloride], the log came to 0.0264.

For `CCCN(C/C=C/I)C1CCc2cccc(O)c2C1` (stereo not given) [8-Hydroxy-PIPAT oxalate], the log was -0.0548.

As for `Cc1cccc(C)c1OCC(C)N` (stereo not given) [Mexiletine hydrochloride], the log is 0.0511.

With `C[C@@H](NCc1cc(Br)cc2[nH]c(=O)c(=O)[nH]c12)P(=O)(O)O`, the log was -0.0258.

As to `O=C(O)c1ccc(-c2ccc3cc(O)c(C45CC6CC(CC(C6)C4)C5)cc3c2)cc1`, the log was -0.256.

Turning to `C[C@H](NC[C@H](O)CP(=O)(O)Cc1ccccc1)c1ccc(Cl)c(Cl)c1`, the log is -0.0186.

On to `CNCCCC12CCC(c3ccccc31)c1ccccc12` [Maprotiline hydrochloride], for which the log was -0.00324.

For `Fc1ccc(Cl)cc1-c1nc(Nc2ccncc2)c2nccnc2n1`, the log is -0.19.

For `O=C1NN(C(=O)Nc2ccc(Br)cc2)[C@@H](c2ccccc2)[C@@H]1c1ccccc1`, the log turned out to be 0.114.
